Reference: PubChem BioAssay AID504774 (Drosophila RNAi Screening Center, 2011)
In all, the deposit lists about 23,000 reagents; this is an unselected part of those that have a named target and a result. 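Values are quantile-normalised luminescence on an arbitrary scale; higher means more cells surviving MMS.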 Names joined by + are all predicted targets of the reagent. Further read-outs or replicates are left out here.

Aim: 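Fly genes whose loss alters survival after alkylation damage to DNA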 (primary screen)
Cell system: Drosophila Kc167 cells
Reagents: long dsRNA against Drosophila genes, about 0.25 µg dsRNA per well
Time to read-out: about 6 days: 3 days knock-down, then 3 days with or without MMS
Challenge: methyl methanesulphonate 0.004% (w/v) for 3 days after knock-down
Measurement: 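Viability in wells given MMS, read as ATP luminescence, normalised by quantiles plate by plate and averaged across replicates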
Direction: mean viability with MMS: higher = more surviving cells after MMS

no.	gene	amplicon	mean viability with MMS
1	CG32036	DRSC10362	3.40e6
2	bt (bent)	DRSC17129	3.54e6
3	bt (bent)	DRSC17171	3.55e6
4	CG10584	DRSC11624	3.61e6
5	hop (hopscotch)	DRSC20340	3.48e6
6	hop (hopscotch)	DRSC23334	3.68e6
7	Pfdn1 (Prefoldin 1)	DRSC02325	3.62e6
8	CG15035	DRSC17967	3.49e6
9	CG17234	DRSC00490	3.43e6
10	CkIIalpha-i3 (CKII-alpha subunit interactor-3)	DRSC08651	3.16e6
11	CG10154	DRSC09707	3.56e6
12	CG34197 (retired record)	DRSC05791	3.39e6
13	Paip2 (polyA-binding protein interacting protein 2)	DRSC14504	3.71e6
14	Arpc1 (Actin-related protein 2/3 complex, subunit 1)	DRSC03438	3.52e6
15	trx (trithorax)	DRSC17089	3.56e6
16	Ndae1 (Na[+]-driven anion exchanger 1)	DRSC00975	3.36e6
17	Ndae1 (Na[+]-driven anion exchanger 1)	DRSC02770	3.53e6
18	ND-MNLL (NADH dehydrogenase (ubiquinone) MNLL subunit)	DRSC18159	3.60e6
19	CG13326	DRSC06363	3.38e6
20	Mettl2 (Methyltransferase like 2)	DRSC08398	3.58e6
21	CG17292	DRSC02594	3.38e6
22	CG13585	DRSC04221	3.51e6
23	CG9010	DRSC07320	3.52e6
24	CG5116	DRSC15720	1.75e6
25	woc (without children)	DRSC15928	3.60e6
26	CarT (Carcinine transporter)	DRSC03196	3.33e6
27	ord (orientation disruptor)	DRSC04706	3.42e6
28	Vps29 (Vacuolar protein sorting 29)	DRSC00666	3.71e6
29	CG9257	DRSC03173	3.59e6
30	TBC1d7 + mRpS24	DRSC14611	3.78e6
31	Pez	DRSC03397	3.66e6
32	Tango1 (Transport and Golgi organization 1)	DRSC02127	3.31e6
33	LanB2 (Laminin B2)	DRSC11208	3.44e6
34	FucTD (alpha1,3-fucosyltransferase D)	DRSC08634	3.56e6
35	Lcp4 (Larval cuticle protein 4)	DRSC07458	3.53e6
36	CG6966	DRSC16156	3.51e6
37	CG31709	DRSC01081	3.72e6
38	CG15279	DRSC01935	3.54e6
39	CG16976 (retired record)	DRSC08499	3.45e6
40	CG30268	DRSC21983	3.46e6
41	CG6709 + Hez	DRSC10165	3.55e6
42	CG6709 + Hez	DRSC10698	3.65e6
43	betaTry (betaTrypsin)	DRSC07582	3.83e6
44	betaTry (betaTrypsin)	DRSC22377	3.39e6
45	CG10035	DRSC14177	3.65e6
46	CG32450	DRSC11546	3.56e6

Laid out differently: 3 of the entries above
{"gene":"CG15035","amplicon":"DRSC17967","mean viability with MMS":3.49e6}
{"gene":"CG17234","amplicon":"DRSC00490","mean viability with MMS":3.43e6}
{"gene":"CkIIalpha-i3 (CKII-alpha subunit interactor-3)","amplicon":"DRSC08651","mean viability with MMS":3.16e6}
